Source: the supplement of paper PMC5949888
Most values lie at the floor of the assay. Slopes are relative: functional sequences can read slightly below zero.

What follows are substances tested on Saccharomyces cerevisiae PS128 hsf1 delta, HSF1(1-493) fusion (assay: growth estimate (transactivation domain function in HSF1 fusion, heat-shock survival) (a.u. (slope of normalised read count over time)); higher = stronger growth at 37°C, i.e. more transactivation activity). Conditions: library: random library.

Question: For LFSGDLKNGVRPADIYCVRP, which growth estimate is on record?
Answer: Its growth estimate is < -0.25.

Question: For GGDRTPGGLTFSHYWGSTQS, which growth estimate is on record?
Answer: Its growth estimate is < -0.25.

Question: For TEGE, which growth estimate is on record?
Answer: Its growth estimate is < -0.25.

Question: With SPYV as the substance, how does the growth estimate read?
Answer: The growth estimate was < -0.25.

Question: For NGSFV, which growth estimate is on record?
Answer: The growth estimate was < -0.25.

Question: Which growth estimate does the source give for YRSFIPSVGWGVLCYYM here?
Answer: Its growth estimate is < -0.25.

Question: Which growth estimate does the source give for LRRAYGTLTKNVSLRIFRGR here?
Answer: Its growth estimate is < -0.25.

Question: For RGASASQGGVYPDRVTTSRI, which growth estimate is on record?
Answer: The growth estimate was < -0.25.

Question: SRLFLPRRRHVRSDRRVW was tested. Which growth estimate did it give?
Answer: The growth estimate was < -0.25.

Question: With LVPICVCNNRS as the substance, how does the growth estimate read?
Answer: The growth estimate was < -0.25.

Question: ISAVIS was tested. Which growth estimate did it give?
Answer: Its growth estimate is < -0.25.

Question: How did the growth estimate turn out when RFTCYSWSTDRTCVHYDVGG was run?
Answer: Its growth estimate is < -0.25.

Question: How did the growth estimate turn out when SAVPSRVYYRFRHGDPMWIV was run?
Answer: The growth estimate was < -0.25.

Question: For TLRGQLS, which growth estimate is on record?
Answer: Its growth estimate is < -0.25.

Question: With YGEGMSPPGGDRVLRGKIAS as the substance, how does the growth estimate read?
Answer: Its growth estimate is < -0.25.

Question: For EDNKSVIKWGRLGLTTIFFI, which growth estimate is on record?
Answer: The growth estimate was < -0.25.

Question: For PRD, which growth estimate is on record?
Answer: Its growth estimate is < -0.25.

Question: QWMGGGTPLVSPRKRGARHT was tested. Which growth estimate did it give?
Answer: Its growth estimate is < -0.25.

Question: How did the growth estimate turn out when LTYLESLGGLLRS was run?
Answer: The growth estimate was < -0.25.

Question: With VYGGGVLSPKHVLVFCRLAW as the substance, how does the growth estimate read?
Answer: The growth estimate was < -0.25.

Question: Which growth estimate does the source give for GVITIPNIVVRDYVTLVSFY here?
Answer: Its growth estimate is < -0.25.

Question: For RFDVEEARVS, which growth estimate is on record?
Answer: The growth estimate was < -0.25.

Question: With AAHASEILAARVGEYNGEAA as the substance, how does the growth estimate read?
Answer: The growth estimate was < -0.25.

Question: VEGIGLCYIPVLNSHTVSPG was tested. Which growth estimate did it give?
Answer: Its growth estimate is < -0.25.

Question: How did the growth estimate turn out when TLKKSG was run?
Answer: Its growth estimate is < -0.25.

Question: For ADHI, which growth estimate is on record?
Answer: The growth estimate was < -0.25.

Question: How did the growth estimate turn out when RPVSLESTTGPRRLE was run?
Answer: The growth estimate was < -0.25.

Question: ILRPRPSGVMRAQLHTVVRY was tested. Which growth estimate did it give?
Answer: Its growth estimate is -0.243.

Question: With GPAWCFDKEGPVCTGSSVVK as the substance, how does the growth estimate read?
Answer: Its growth estimate is < -0.25.

Question: ALHKGAGSCSLPAPVGRSAS was tested. Which growth estimate did it give?
Answer: Its growth estimate is < -0.25.

Question: How did the growth estimate turn out when HLLFY was run?
Answer: Its growth estimate is < -0.25.

Question: How did the growth estimate turn out when ITMR was run?
Answer: The growth estimate was < -0.25.

Question: For LFRGPRALSRVKGNVYRAVV, which growth estimate is on record?
Answer: The growth estimate was < -0.25.

Question: With LTAKESILCYTDGGSRLVES as the substance, how does the growth estimate read?
Answer: The growth estimate was < -0.25.

Question: With QISNFQRALRVDSFGAWVAS as the substance, how does the growth estimate read?
Answer: Its growth estimate is < -0.25.

Question: GRTLHGQLDLYFVAC was tested. Which growth estimate did it give?
Answer: The growth estimate was < -0.25.

Question: With LKAYPSASGLRVRLLAPLKV as the substance, how does the growth estimate read?
Answer: Its growth estimate is < -0.25.

Question: How did the growth estimate turn out when YRCYYTLAILHGVTSTNPST was run?
Answer: Its growth estimate is < -0.25.

Question: Which growth estimate does the source give for DQLRQGELRPWRRSSSHIGL here?
Answer: Its growth estimate is < -0.25.

Question: WLRENQAVVSAWKTSGAGVE was tested. Which growth estimate did it give?
Answer: The growth estimate was < -0.25.

Question: For RSQESSS, which growth estimate is on record?
Answer: Its growth estimate is < -0.25.

Question: For CIH, which growth estimate is on record?
Answer: Its growth estimate is < -0.25.

Question: With VGLGAPSLVVSRLSNIA as the substance, how does the growth estimate read?
Answer: The growth estimate was < -0.25.

Question: For EALESSRVLPS, which growth estimate is on record?
Answer: Its growth estimate is < -0.25.

Question: LLYLRKSVNWRF was tested. Which growth estimate did it give?
Answer: Its growth estimate is < -0.25.

Question: Which growth estimate does the source give for HTQCLHRHRNRLLSRAVPFF here?
Answer: The growth estimate was < -0.25.

Question: EKLAINGSSDPWLDSMVFTV was tested. Which growth estimate did it give?
Answer: The growth estimate was < -0.25.

Question: How did the growth estimate turn out when HSREAFWPLG was run?
Answer: The growth estimate was < -0.25.

Question: KYLYKGNSTRVRVTSCQRTR was tested. Which growth estimate did it give?
Answer: The growth estimate was -0.0469.

Question: GFVAPQVVQGS was tested. Which growth estimate did it give?
Answer: Its growth estimate is < -0.25.

Question: RKTYVYSTLKQ was tested. Which growth estimate did it give?
Answer: Its growth estimate is < -0.25.

Question: For ARS, which growth estimate is on record?
Answer: Its growth estimate is < -0.25.

Question: Which growth estimate does the source give for IQFCRVCLPTW here?
Answer: The growth estimate was < -0.25.

Question: For LSQSSGMHPRFLVFTLDRAP, which growth estimate is on record?
Answer: The growth estimate was < -0.25.

Question: For ACNVKAGGAYLHTDFYISSG, which growth estimate is on record?
Answer: Its growth estimate is < -0.25.

Question: For RGSSDGPV, which growth estimate is on record?
Answer: Its growth estimate is < -0.25.

Question: For DGVIPQ, which growth estimate is on record?
Answer: Its growth estimate is < -0.25.

Question: For SSPIVPYR, which growth estimate is on record?
Answer: The growth estimate was < -0.25.

Question: Which growth estimate does the source give for FFGTHAVINF here?
Answer: Its growth estimate is < -0.25.

Question: GTVE was tested. Which growth estimate did it give?
Answer: Its growth estimate is < -0.25.

Question: Which growth estimate does the source give for SEENALDAVFTWQCPTSGKH here?
Answer: The growth estimate was < -0.25.

Question: How did the growth estimate turn out when VKKP was run?
Answer: Its growth estimate is < -0.25.

Question: With QGVHDGYSPQHARLATGIVS as the substance, how does the growth estimate read?
Answer: The growth estimate was < -0.25.

Question: Which growth estimate does the source give for NASPCPALSGRLSWHSSTLM here?
Answer: Its growth estimate is < -0.25.

Question: For LCWNLLLVA, which growth estimate is on record?
Answer: The growth estimate was < -0.25.

Question: For HPSYPSPPPSTQAGIDISNH, which growth estimate is on record?
Answer: Its growth estimate is < -0.25.

Question: For TVTELLHRVREDAYRKTLAD, which growth estimate is on record?
Answer: The growth estimate was < -0.25.

Question: CSQCLIRHGPRN was tested. Which growth estimate did it give?
Answer: Its growth estimate is < -0.25.

Question: Which growth estimate does the source give for LGEGRPTVGATRVLPHI here?
Answer: Its growth estimate is < -0.25.

Question: Which growth estimate does the source give for REEDSL here?
Answer: The growth estimate was < -0.25.

Question: SPTYLRRCAVRHTVTDERFP was tested. Which growth estimate did it give?
Answer: Its growth estimate is < -0.25.

Question: How did the growth estimate turn out when YCSCFLLMLKRATAGCA was run?
Answer: The growth estimate was < -0.25.

Question: QYLFRVEGI was tested. Which growth estimate did it give?
Answer: Its growth estimate is -0.25.

Question: Which growth estimate does the source give for NKGD here?
Answer: Its growth estimate is -0.243.

Question: For DNNTALVCPFKSHLYVADSR, which growth estimate is on record?
Answer: Its growth estimate is -0.244.

Question: QLIFDKHRLPDLEEGVFSAR was tested. Which growth estimate did it give?
Answer: Its growth estimate is < -0.25.

Question: With KRKDPIVSERLLRR as the substance, how does the growth estimate read?
Answer: The growth estimate was < -0.25.

Question: With LSHLRGVR as the substance, how does the growth estimate read?
Answer: The growth estimate was < -0.25.

Question: TGLVGFLK was tested. Which growth estimate did it give?
Answer: Its growth estimate is < -0.25.

Question: PSTNLADMAMSEYVSLFKVA was tested. Which growth estimate did it give?
Answer: The growth estimate was < -0.25.

Question: With AAGDRHGTASFSFCPK as the substance, how does the growth estimate read?
Answer: Its growth estimate is < -0.25.

Question: For YVLGK, which growth estimate is on record?
Answer: Its growth estimate is < -0.25.

Question: RLMFAVRN was tested. Which growth estimate did it give?
Answer: Its growth estimate is < -0.25.

Question: VEAHLS was tested. Which growth estimate did it give?
Answer: Its growth estimate is < -0.25.

Question: With SVVGTRGSPSRRIGSEVHGP as the substance, how does the growth estimate read?
Answer: Its growth estimate is < -0.25.

Question: For NGQGFLEGPHAEDGPVGYVF, which growth estimate is on record?
Answer: The growth estimate was < -0.25.

Question: TYGVDR was tested. Which growth estimate did it give?
Answer: The growth estimate was -0.247.

Question: For VGLSDRSGSTRCGFKRARTS, which growth estimate is on record?
Answer: Its growth estimate is < -0.25.

Question: For GGDYPLYKDGRGTVDDTLGW, which growth estimate is on record?
Answer: Its growth estimate is < -0.25.

Question: How did the growth estimate turn out when RRCRQSYHGACSSITRGYQS was run?
Answer: Its growth estimate is < -0.25.

Question: Which growth estimate does the source give for GLGGSAVKLLISKTVSVVSP here?
Answer: The growth estimate was < -0.25.

Question: GRSTVDTSYRLRFSSEIVGH was tested. Which growth estimate did it give?
Answer: The growth estimate was < -0.25.

Question: With PRSTHDKRGWAPARGNMGCC as the substance, how does the growth estimate read?
Answer: Its growth estimate is < -0.25.

Question: With YLMFHVYSQCSGTKGTQDHA as the substance, how does the growth estimate read?
Answer: The growth estimate was < -0.25.

Question: For GKLAYVQFDPGLNLPRPSGP, which growth estimate is on record?
Answer: Its growth estimate is < -0.25.

Question: STRGPRRVGPAGDPVLGAGP was tested. Which growth estimate did it give?
Answer: The growth estimate was < -0.25.

Question: Which growth estimate does the source give for NLYGDGSAGTSRPH here?
Answer: The growth estimate was < -0.25.

Question: How did the growth estimate turn out when LALRANSCHGVQDGEYRPLC was run?
Answer: The growth estimate was < -0.25.

Question: How did the growth estimate turn out when IRRLNLDKVSASRLCTPDCH was run?
Answer: The growth estimate was < -0.25.
